Results from paper PMC7819943, “Rice protein-binding microarrays: a tool to detect cis-acting elements near promoter regions in rice”.
This is one part of the list.

By UniProt entry, the sequences of proteins in these tests, tags left out.
UniProt Q0JBA9, entry or part of it: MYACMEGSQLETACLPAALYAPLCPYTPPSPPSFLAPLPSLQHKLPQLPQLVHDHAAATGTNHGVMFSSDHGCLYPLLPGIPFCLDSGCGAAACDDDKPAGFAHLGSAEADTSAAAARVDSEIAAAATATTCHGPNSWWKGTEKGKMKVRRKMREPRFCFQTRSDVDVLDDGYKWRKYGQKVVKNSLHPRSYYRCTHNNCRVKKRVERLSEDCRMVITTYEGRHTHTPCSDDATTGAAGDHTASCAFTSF

Biological target: OsWRKY34 (Oryza sativa, UniProt Q0JBA9 1-250)
Assay: protein-binding microarray (RPBM); PBS, 2% BSA, 51.3 ng/ul salmon testes DNA, 50 uM zinc acetate, 200 nM TF, 25 C, 1 h; high values mean tight binding
Details: protein: recombinant; tags: N-terminal polyhistidine and DsRed monomer fusion (pET32a); label: CyDye5-dUTP incorporated in the synthesized complementary strand; 3' TTTTT single-stranded linker to array surface; dsDNA, one strand shown
Procedure, shortened: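 An Axon 4000B scanner gave the binding signal as per-feature fluorescence intensity in arbitrary units. This followed washing of a custom Agilent array that had been incubated for 1 h at 25 °C with 200 nM protein in PBS, 2% BSA, salmon testes DNA and 50 µM zinc acetate. The proteins were transcription factors fused at the N-terminus to polyhistidine and DsRed, expressed in E. coli BL21-CodonPlus and purified on Ni–NTA.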

Row | Sequence | binding signal
1 | ACCGGCTCTCTAATCCTTAAATTCTGGCTTTGCTGCTAGTCGGAGTCACCTAGTGCAG | 9240 fluorescence intensity (a.u.)
2 | TCTCTCTGGGAGGTCTCGCGGAAGGTGGTGGGGTTGGGCCCGGAGTCACCTAGTGCAG | 11500 fluorescence intensity (a.u.)
3 | TCTTCAGTAGTCTTGCTCTATATGCATTGTGATGTCCATCCGGAGTCACCTAGTGCAG | 9060 fluorescence intensity (a.u.)
4 | TGACTCTTCTATGCTTCTTGGACCAATTTGATTTTCAGGTCGGAGTCACCTAGTGCAG | 10300 fluorescence intensity (a.u.)
5 | GCGTTTTACAGGGTTGCTTAGTGGGTGGGATGTTAACGATCGGAGTCACCTAGTGCAG | 14700 fluorescence intensity (a.u.)
6 | TCCACATATGCTAGCTTATAGGCTGCTATTATATACTCTCCGGAGTCACCTAGTGCAG | 8500 fluorescence intensity (a.u.)
7 | GCCACCTCTGTCTGCCGCCACCGCCGCCGCCGCCGCCATGCGGAGTCACCTAGTGCAG | 10200 fluorescence intensity (a.u.)
8 | CAATATTCTTTGACAGCTTCGATTGACATCTCACCTTATGCGGAGTCACCTAGTGCAG | 8510 fluorescence intensity (a.u.)
9 | TTTTTTTCTGGTTTGACTCTTGAGGGCCTTTGCTGAAAGCCGGAGTCACCTAGTGCAG | 10400 fluorescence intensity (a.u.)
10 | TTCGGCGGTGTGGTGTTAGCTAGTTCATGTCATGGCAACCCGGAGTCACCTAGTGCAG | 8330 fluorescence intensity (a.u.)
11 | TTTTTGGTGGGGTAGAGTTGTATTTGGTTTGAGGCCAATTCGGAGTCACCTAGTGCAG | 9480 fluorescence intensity (a.u.)
12 | TCAACCGCTATCACACTACTTGCTAGCTCGTTACCCTATCCGGAGTCACCTAGTGCAG | 9030 fluorescence intensity (a.u.)
13 | CACCGTGCGCGGTCTCTTGATCTCTCTTTTTCATGTCGTTCGGAGTCACCTAGTGCAG | 8580 fluorescence intensity (a.u.)
14 | ATACACTGTTCTGTTCCTGTTTCCAACTCAAGAAAACTTCCGGAGTCACCTAGTGCAG | 9210 fluorescence intensity (a.u.)
15 | GTGGCGTTGACCACCGACGTTGAAAATGGAAGCGCACATGCGGAGTCACCTAGTGCAG | 8640 fluorescence intensity (a.u.)
16 | GAGCGCTCGTGTCTCCGCGTCGTCACTTGTAGTTTTGCAACGGAGTCACCTAGTGCAG | 11200 fluorescence intensity (a.u.)
17 | TTCTTTGTCTCTCTCTCTCGGGCGGATTTCGGTTTCTTCGCGGAGTCACCTAGTGCAG | 9130 fluorescence intensity (a.u.)
18 | AGCTCAGAATCCTACCTGACTAGTACTACCACTACTAGCTCGGAGTCACCTAGTGCAG | 8500 fluorescence intensity (a.u.)
19 | CTCGCGCCCGCTCGCCGCCTCGTCCTCGCCGTCCTCGGTCCGGAGTCACCTAGTGCAG | 8520 fluorescence intensity (a.u.)
20 | CCACTTTTGGAGTCAAACTGTGGCCTATCTCTTCACACGTCGGAGTCACCTAGTGCAG | 9760 fluorescence intensity (a.u.)
21 | CGTAATTTACACGCAATATGTGTAATTAGTTATTTTTTTCCGGAGTCACCTAGTGCAG | 9270 fluorescence intensity (a.u.)

Row | Sequence | binding signal
22 | CATTGACGGCACCTGCCATCTCGGTTCTTCAGTTACTATTCGGAGTCACCTAGTGCAG | 10300 fluorescence intensity (a.u.)
23 | TTAATCCATGTCATGTCCCTTTGCTTGCTTCCTTTGCTTTCGGAGTCACCTAGTGCAG | 8450 fluorescence intensity (a.u.)
24 | GGGTTTTGTGGCTGCATACCCACTATGGGTTGGAGTGTCTCGGAGTCACCTAGTGCAG | 8090 fluorescence intensity (a.u.)
25 | CCACTGTCCACATGCCCACATCATCTTCAACTGGGCCTACCGGAGTCACCTAGTGCAG | 8480 fluorescence intensity (a.u.)
26 | GTCTTCTTCTTGCTCCTCTGGTAAGGTGTACTACCTCACACGGAGTCACCTAGTGCAG | 8080 fluorescence intensity (a.u.)
27 | GGAAAGTTATACTCTGTTATGGTACCCTTGTATACGCTACCGGAGTCACCTAGTGCAG | 8820 fluorescence intensity (a.u.)
28 | GGGGAGAATGAATAGTTAGGATTTAATGATGTTTTTTGGTCGGAGTCACCTAGTGCAG | 10500 fluorescence intensity (a.u.)
29 | CGGCAAATTTCACATATTTTGCAGTGTCCTCGGGCAGTTTCGGAGTCACCTAGTGCAG | 8230 fluorescence intensity (a.u.)
30 | GAATTTCAGACATCCATTTTCTAATCCAACGGTAGTTTTTCGGAGTCACCTAGTGCAG | 8760 fluorescence intensity (a.u.)
31 | GCTTAGGTTTAAAGCCTCACTCATTCTAATTATTTGATATCGGAGTCACCTAGTGCAG | 8070 fluorescence intensity (a.u.)
32 | CTCATCGCCTCGTCTCACGTTTGATCCATCACACTCACACCGGAGTCACCTAGTGCAG | 8560 fluorescence intensity (a.u.)
33 | GCTATCTTCGATCTGCTGTTCAACAATTCCGCTTCCGCCTCGGAGTCACCTAGTGCAG | 8830 fluorescence intensity (a.u.)
34 | ACCGGTCAAGACTGCAGTTTGTAGTTGAAGAAGAATTCTACGGAGTCACCTAGTGCAG | 12700 fluorescence intensity (a.u.)
35 | ACACGGATGCAACCCAAACCCAACACGGCAAGTCGCGGCCCGGAGTCACCTAGTGCAG | 8300 fluorescence intensity (a.u.)
36 | CCGACCGACCGACCGACCGCCGCGCGCGTACTGGCTACACCGGAGTCACCTAGTGCAG | 8500 fluorescence intensity (a.u.)
37 | CATTACCACAATTTGCCTCGCATTGACACAACTCAAGTTACGGAGTCACCTAGTGCAG | 8530 fluorescence intensity (a.u.)
38 | GGCGCTGCTTCGTGATTGCTTGTCTCGTGTCTGAATCACTCGGAGTCACCTAGTGCAG | 9720 fluorescence intensity (a.u.)
39 | CTGTTATTGTACCTGCTTTTACTACGTTCCCAATCACGAGCGGAGTCACCTAGTGCAG | 12300 fluorescence intensity (a.u.)
40 | GAGCCTTGTACCTGGTGCCATGATCTTGAACGCTTAGATGCGGAGTCACCTAGTGCAG | 8300 fluorescence intensity (a.u.)
41 | CATATATTTTGCACAAATCCAGCCCAACTTCTACGGGCCGCGGAGTCACCTAGTGCAG | 8750 fluorescence intensity (a.u.)
42 | TATTATTATGATGGGTTTGTATATTAAAATTGTCAGTTTGCGGAGTCACCTAGTGCAG | 8110 fluorescence intensity (a.u.)

Looked up above:
ACACGGATGCAACCCAAACCCAACACGGCAAGTCGCGGCCCGGAGTCACCTAGTGCAG – binding signal: 8300 fluorescence intensity (a.u.)
GAATTTCAGACATCCATTTTCTAATCCAACGGTAGTTTTTCGGAGTCACCTAGTGCAG – binding signal: 8760 fluorescence intensity (a.u.)
